Patent US9708413B2, “Glycosylated linker, compound containing glycosylated linker moiety and physiologically active substance moiety or salt thereof, and methods for producing said compound or salt thereof” (Glytech, Inc., priority 2012, dated 2017)
Not every detail of the peptide structures is certain; ends, links or a residue may be inferred.

Test: Solubility in 0.1% aqueous TFA solution (absorbance of supernatant at 280 nm)
Protocol: To each microtube, 30 μL of a 0.1% aqueous TFA solution was added. These microtubes were shaken at 25° C. for 15 minutes and then centrifuged at 16100×g at 25° C. for 10 minutes. Subsequently, the absorbance of the supernatant at 280 nm was measured in each of these microtubes.
Then, three of these tubes were used in amino acid composition analysis to determine sample contents. […] This absorbance at 280 nm was divided by the concentration determined in the amino acid composition analysis to determine the molar absorption coefficient.
The molar absorption coefficient εM of the HER28-16 peptide (SEQ ID NO: 15) at 280 nm was calculated according to the following expression (C. N. Pace et al., Prot. Sci., 1995, 4, pp. 2411-2423): εM=Trp×5500+Tyr×1490+Cystine×125[A280/mol/cm]
wherein Trp represents the number of tryptophan residues, Tyr represents the number of tyrosine residues, and Cystine represents the number of disulfide bonds.

Compound: CC(C)C[C@H](NC(=O)[C@H](CC(C)C)NC(=O)[C@H](C)NC(=O)[C@H](CC(C)C)NC(=O)[C@H](CC(C)C)NC(=O)[C@H](CC(C)C)NC(=O)CNC(=O)[C@H](Cc1c[nH]c2ccccc12)NC(=O)[C@@H](N)CCCNC(=N)N)C(=O)O [HER28-16, reference compound]
- Precipitation in the microtube (visual): able to be visually confirmed
